{
  "source": "patent US20050158370A1",
  "about": "(Amura Therapeutics Limited, priority 2002, published 2005)",
  "assay": "general procedure: Fmoc solid-phase peptide synthesis; TGR resin",
  "conditions": "whole synthesis, scale 0.05 mmol, one disulfide bridge",
  "data": [
    {"substance": "Acetyl-CYIQNCPLGK(COCH2CH2CONHNH2)—NH2", "values": [
      {"measurement": "isolated mass", "result": 24, "unit": "mg"},
      {"measurement": "isolated yield", "result": 37, "unit": "%"}
    ]}
  ]
}
